# Library screen at single concentrations

From ChEMBL document CHEMBL3988442, “University of Dundee, Small-Polar-MMV Screening Library” (2021).

Mtb glucose medium: 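Phenotypic screen: M. tuberculosis growth, glucose 7H9 medium, 3 days; the read-out is not stated. Tested at 50 µM. Higher reads as more growth inhibition (inferred: compounds with an IC50 in retests scored well above the rest). Size under these conditions: about 69,000 compounds, about 760 of them at 50% or above in at least one test.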
Mtb cholesterol medium: 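Phenotypic screen: M. tuberculosis growth, cholesterol and DPPC medium, 4 days; the read-out is not stated. Tested at 50 µM. Direction is inferred from retests: higher values go with more growth inhibition. Of about 69,000 compounds tested this way, about 370 (0.54%) reached 50% or more in at least one test.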

Each number is a percent effect as filed. The controls that fix the scale are not given in the record; negative values are as filed. Compounds were drawn at random from those tested, without regard to their results. Two or more numbers in one place are separate tests of the same structure; such repeats can differ widely.

| # | structure | Mtb glucose medium | Mtb cholesterol medium |
|---|---|---|---|
| 1 | `CSCCCN1CCn2nc(CNC(C)=O)cc2C1` | -45.23 & -12.6 | -21.59 |
| 2 | `COCCN1CCC2(CC1)CC(c1cccnc1)C(=O)N2C` (stereo not shown) | -16.12 | -15.82 |
| 3 | `Cc1cc(C2CCCN2Cc2cccc(C(=O)Nc3nccs3)c2)no1` (stereo not shown) | -21.32 | 4.61 |
| 4 | `Cc1cc(CNC(=O)Cc2c(C)nc3cc(=O)[nH]n3c2C)no1` | 4.768 | 2.917 |
| 5 | `CSCc1noc(CNC(=O)C2CCN(C(=O)C3CC3)CC2)n1` | 10.93 & 2.406 | 3.039 |
| 6 | `C[C@@H]1CN(C(=O)C2CCOCC2)C[C@]12CCN(c1cccnc1)C2=O.O=C(O)C(F)(F)F` | -3.685 & -16.32 | 3.208 |
| 7 | `CCc1ccc(C(=O)N2CCN(CCO)CC2)o1` | -44.21 & -2.768 | -19.88 |
| 8 | `CSCCC(=O)N1CCC(c2nccn2CCN(C)C)CC1` | 19.5 | 7.58 |
| 9 | `CCn1ccnc1CN1CCCN(C(=O)Cc2ccccc2C)CC1` | -11.5 | -11.4 |
| 10 | `Cc1nn(C)c2ncc(CN3CCN(c4ncccn4)CC3)cc12` | -20.38 | -8.749 |
| 11 | `Cn1cc(CN2CC[C@]3(C[C@H](Oc4ccccn4)CO3)C2)cn1.O=C(O)C(F)(F)F.O=C(O)C(F)(F)F` | 15.28 | 8.541 |
| 12 | `Cn1c(CCNc2nccnc2C#N)nc2cc(Cl)ccc21` | 20.54 | 16.36 |
| 13 | `Cc1cc(C)n(CC2(CNC(=O)C(c3ccccc3F)N(C)C)CC2)n1` (stereo not shown) | -1.787 | -6.317 |
| 14 | `CCN(C(=O)c1ccc(-n2ncc(C#N)c2N)cc1)C1CCCC1` | 6.948 | 8.607 |
| 15 | `O=C(N1CCCC(n2cncn2)C1)C1(c2cccc(F)c2)CCCC1` (stereo not shown) | 15.53 | -3.002 |
| 16 | `COc1cc(C)nc(N2CCN(C(=O)CCc3nccs3)CC2)n1` | -21.35 | -6.621 |
| 17 | `COc1ccc(-n2nnc(C(=O)O)c2-c2ccccn2)cc1` | -26.27 | -30.85 |
| 18 | `Cc1nc(S(=O)(=O)CCn2cccn2)n(CC2CCCO2)c1C` (stereo not shown) | 1.332 & 10.05 | -8.298 |
| 19 | `O=C(c1ccc(N2CCOCC2)cc1)N1CCCC(n2ccnc2)C1` (stereo not shown) | -4.46 | -19.91 |
| 20 | `CC(C)(C)c1nc(CN2CCCC2c2nnc3ccccn23)no1` (stereo not shown) | -1.144 | 6.631 |
| 21 | `CCC(CO)N(Cc1ccsc1)Cc1cccc(O)c1` (stereo not shown) | -18.8 | -11.23 & -1.357 |
| 22 | `O=C(NCCn1ccc(-c2ccncc2)n1)c1ccncc1` | -3.416 & 4.49 | 3.867 |
| 23 | `Cc1cnn(CC2CN(Cc3nc(-c4ccsc4)no3)CCO2)c1` (stereo not shown) | 3.832 | 0.6501 |
| 24 | `CNC(=O)c1ccc(NC(=O)NC(C)c2cc(C)oc2C)cc1` (stereo not shown) | -12.2 | 0.4792 |
| 25 | `O=C(CCc1ccccc1)NCC(O)c1c(F)cccc1F` (stereo not shown) | -11.52 | -12.17 |
| 26 | `CCc1noc(C(C)N2CCN(Cc3ncc(C(C)(C)C)o3)CC2)n1` (stereo not shown) | -32.31 | -36.38 |
| 27 | `CC(=O)N1CCN(Cc2coc(-c3cccc(F)c3)n2)CC1` | 17.08 | -4.223 |
| 28 | `Cc1cc(CNC(=O)NCCC(=O)N2CCCc3ccccc32)no1` | 12.61 | -23.68 |
| 29 | `O=C(Cc1ccco1)N1CCC2(CCOCC2COCC2CC2)CC1` (stereo not shown) | -9.601 | 8.889 |
| 30 | `CN1CCC2(CCN(C(=O)c3ccccc3)CC2)C1` | 5.042 | -5.767 |
| 31 | `CC(C)c1noc(C(C)N2CCN(Cc3cccs3)CC2)n1` (stereo not shown) | -25.23 | -10.35 |
| 32 | `CC(=O)N1CCCC(c2nc(N(C)C)ncc2-c2cccc(F)c2)C1` (stereo not shown) | 34.86 | 12.02 |
| 33 | `CNC(=O)c1cccc(CN2CCC(N(C)Cc3nnc(C)o3)C2)c1` (stereo not shown) | 2.114 & -27.29 | -6.867 |
| 34 | `CN1C[C@H](O)[C@]2(CCN(C(=O)COc3ccccc3)C2)S1(=O)=O` | 13.26 | -4.495 |
| 35 | `CC(C(=O)NCCCn1ccnc1)n1cc(Br)cn1` (stereo not shown) | -34.93 | -16.84 |
| 36 | `Cc1ccc(C(=O)N2CCOC(c3ncc(CN(C)C)[nH]3)C2)cc1F` (stereo not shown) | 13.97 | 5.29 |
| 37 | `CNS(=O)(=O)CC(=O)NC(C)Cc1ccccc1Br` (stereo not shown) | -30.67 | -0.4966 |
| 38 | `CC(C)OCc1noc(C2CC=CC2)n1` | -8.7 | -12.56 |
| 39 | `Cc1cc2[nH]c(CN3CCOC(Cc4ccccc4)C3)cc(=O)n2n1` (stereo not shown) | 4.776 | -44.14 |
| 40 | `CS(=O)(=O)Nc1ccn(Cc2ccc(F)cc2Cl)n1` | 18.1 | 16.48 |
| 41 | `[H][C@@]12COC[C@@H](Cc3nc(C)no3)[C@]1([H])CN(S(=O)(=O)CCC)C2` | 1.467 & -8.516 | 1.978 |
| 42 | `O=C(O)C(F)(F)F.O=C(O)C(F)(F)F.[H][C@]12CCC(=O)N(c3cccnc3)[C@@]1([H])CCN2c1ncc(F)cn1` | -5.382 & -32.78 | -26.11 |
| 43 | `CC1CCN(c2ccc(C(=O)N3CCCC3c3nncn3C)cn2)CC1` (stereo not shown) | -29.77 | -23.88 |
| 44 | `CN(Cc1ccco1)C(=O)CN1CCCC1c1cccs1` (stereo not shown) | 34.91 | -39.36 |
| 45 | `Cc1cc(CN2CCCC(NS(C)(=O)=O)C2)ccc1-n1cncn1` (stereo not shown) | -12.21 & 1.352 | -3.808 |
| 46 | `CC(C)NC(=O)Cn1cc(-c2ccccc2)ncc1=O` | 4.828 | -11.7 |
| 47 | `Cl.O=C(NC1CCCC1)C1(Cc2cc(C3CCOC3)no2)CCNCC1` (stereo not shown) | 12.7 | 5.947 |
| 48 | `CCCOC(C)C(=O)NCc1cc2n(n1)CCCN(C1CCCCC1)C2` (stereo not shown) | 15.44 | 2.724 |
| 49 | `Cc1cnc2c(c1NCc1ccncc1)c(=O)n(C)c(=O)n2C` | -22.14 & -13.98 | -43.24 |
| 50 | `CCc1c(C)nc2n(c1=O)CC(C(=O)Nc1sccc1C(=O)OC)CS2` (stereo not shown) | -0.219 | 8.107 |
| 51 | `COCC1CN(c2ccncn2)Cc2cnn(CC3CCCC3)c21.O=C(O)C(F)(F)F.O=C(O)C(F)(F)F` (stereo not shown) | 16.12 | -10.38 |
| 52 | `CC(=O)N1CCOC(c2cncc(CCC(N)=O)n2)C1` (stereo not shown) | 3.238 | 1.231 |
| 53 | `CC(C)NC(=O)C(C)NC(=O)N1CCN(c2ccc(Cl)cc2)CC1` (stereo not shown) | -25.46 | -31.98 |
| 54 | `Cc1ccc(CN(CCCn2ccnc2)Cc2c[nH]nc2C(C)(C)C)s1.O=C(O)CC(O)(CC(=O)O)C(=O)O` | 15.22 | -7.104 |
| 55 | `CNC(=O)c1ccc(-c2ccc(CNC(=O)COC)cc2)nc1C` | -7.551 | -22.42 |
| 56 | `CC(C)CC(C)(CNC(=O)c1cnccn1)NC(=O)c1cnccn1` (stereo not shown) | 12.13 | -1.853 |
| 57 | `CC(C)(O)CN1CCN(C(=O)c2ccc3c(c2)COC3)CC1` | 6.983 | 1.994 |
| 58 | `Cc1cccc(S(=O)(=O)N2CSCC2C(=O)NC(C)(C)C)c1` (stereo not shown) | 21.42 | -24.6 |
| 59 | `O=C(NCCN1CCNCC1)c1c(O)c2ccccc2[nH]c1=O` | 2.598 | -19.4 |
| 60 | `CCN(CC)CCCNCc1cc2cc(C)ccc2[nH]c1=O` | 13.17 | -23.87 |
| 61 | `CCOc1ccccc1CNS(=O)(=O)c1ccc2c(c1)CCCC(=O)N2` | 4.875 | -2.051 |
| 62 | `CC(=O)NCCOc1c(C)cccc1C` | 13.47 | 18.45 & -6.96 |
| 63 | `Cc1nsc(NC(=O)N2CCCCC2CCCO)n1` (stereo not shown) | -26.2 | -22.7 |
| 64 | `[H][C@]12CC[C@]([H])(CN(Cc3cscn3)C1)N(C(=O)CSc1ccccn1)C2` | -1.674 | -8.021 |
| 65 | `CCn1ncnc1C(C)NC(=O)Cc1cc2c(cc1Cl)OCCO2` (stereo not shown) | -22 | -8.607 |
| 66 | `Cc1nc(C2CCCN2CC(=O)NCCOc2cccc(F)c2)no1` (stereo not shown) | -6.131 | -2.343 |
| 67 | `O=C(O)C(F)(F)F.[H][C@]12C[C@@H](Cn3cncn3)N(c3nccs3)[C@@]1([H])CCN(C(C)=O)C2` | -1.851 & 3.068 | 0.6104 |
| 68 | `O=C(c1cnc(NCCC2CCCO2)c(Cl)c1)N1CCCCC1` (stereo not shown) | -17.51 | 1.112 & 4.475 |
| 69 | `Cc1nc(C(=O)NCc2ccccn2)cc(C2CCCN2)n1` (stereo not shown) | -16.28 | -20.34 |
| 70 | `CCc1nnsc1C(=O)N(C)Cc1ccc(Br)o1` | -3.194 | -12.52 |
| 71 | `COc1c(CNCc2cccnc2N2CCN(C)CC2)c(C)nn1C` | -9.361 | -5.094 |
| 72 | `Cc1nc(Nc2cnccn2)cc(C2CCN(CCO)C2)n1.O=CO` (stereo not shown) | 18.89 | -13.46 |
| 73 | `COc1ncccc1CNC(=O)NC(C)Cn1cccn1` (stereo not shown) | -10.37 | -7.609 |
| 74 | `CCOc1cc(CNC(=O)CNC(=O)CC2CCCCC2)ccn1` | 2.575 | -0.2568 |
| 75 | `NS(=O)(=O)c1cnn(-c2ccc(NC(=O)C3CCCCC3)cn2)c1` | -5.452 & -12.64 | -0.7558 |
| 76 | `COc1ccc(C)cc1CN(Cc1ncc(C)o1)C1CCN(C)C1` (stereo not shown) | -16.23 | -12.56 |
| 77 | `CC(CCn1cccn1)NCc1n[nH]c2c1CCCCC2` (stereo not shown) | -8.066 & -6.72 | 3.65 |
| 78 | `CN(Cc1cnn(C)c1)Cc1nc(CCc2ccccc2)no1` | 8.887 & -18.85 | 8.518 |
| 79 | `Cc1nc(O)cc(CCNC(=O)CN2CCCCCC2)n1` | 3.609 & 0.1733 | -14.26 |
| 80 | `O=C(c1cccnc1O)N(CCO)Cc1cc(Br)ccc1F` | 0.7794 & 2.191 | -9.313 |
| 81 | `Cc1nc2ccccc2c(=O)n1CCCC(=O)N1CCNC(=O)CC1` | 4.397 | 5.093 |
| 82 | `[H][C@@]12C[C@H](C(=O)N3CCCC3)[C@@]([H])(CN(S(=O)(=O)CC(C)C)C1)O2` | -3.656 | -6.712 |
| 83 | `CCn1cc(S(=O)(=O)N2CCN(C(=O)c3cc(Br)cs3)CC2)c(C)n1` | -3.33 & -26.05 | -17.84 |